Laboratory results as given in publication PMC6949240.

Sequences of proteins named here, by UniProt entry; tags and fusion partners are left off.
UniProt P18887: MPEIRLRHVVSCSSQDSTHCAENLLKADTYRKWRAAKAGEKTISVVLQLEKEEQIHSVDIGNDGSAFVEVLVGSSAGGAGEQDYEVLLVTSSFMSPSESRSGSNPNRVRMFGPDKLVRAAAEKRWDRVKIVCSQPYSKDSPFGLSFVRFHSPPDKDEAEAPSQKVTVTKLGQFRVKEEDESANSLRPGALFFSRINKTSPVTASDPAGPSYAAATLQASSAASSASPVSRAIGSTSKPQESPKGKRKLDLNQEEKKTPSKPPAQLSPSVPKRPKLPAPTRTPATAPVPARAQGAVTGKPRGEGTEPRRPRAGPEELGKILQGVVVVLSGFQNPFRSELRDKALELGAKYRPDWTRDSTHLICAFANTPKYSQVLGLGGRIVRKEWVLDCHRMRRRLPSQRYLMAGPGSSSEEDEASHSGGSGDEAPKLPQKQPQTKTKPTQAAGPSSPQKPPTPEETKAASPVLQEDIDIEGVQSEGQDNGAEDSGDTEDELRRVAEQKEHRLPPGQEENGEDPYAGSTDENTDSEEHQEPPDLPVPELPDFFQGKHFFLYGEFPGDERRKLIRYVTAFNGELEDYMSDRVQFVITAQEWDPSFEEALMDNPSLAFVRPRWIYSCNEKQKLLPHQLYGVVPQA
UniProt P39748: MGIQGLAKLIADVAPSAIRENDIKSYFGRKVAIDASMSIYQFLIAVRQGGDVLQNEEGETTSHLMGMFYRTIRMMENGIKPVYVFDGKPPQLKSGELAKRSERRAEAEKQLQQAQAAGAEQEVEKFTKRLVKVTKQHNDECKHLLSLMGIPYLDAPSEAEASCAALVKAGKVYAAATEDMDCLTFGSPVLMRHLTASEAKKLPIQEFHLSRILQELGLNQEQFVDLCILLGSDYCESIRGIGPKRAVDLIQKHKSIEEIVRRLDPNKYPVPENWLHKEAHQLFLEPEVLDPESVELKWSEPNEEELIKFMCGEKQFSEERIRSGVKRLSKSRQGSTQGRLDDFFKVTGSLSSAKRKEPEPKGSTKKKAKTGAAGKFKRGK
UniProt P67809: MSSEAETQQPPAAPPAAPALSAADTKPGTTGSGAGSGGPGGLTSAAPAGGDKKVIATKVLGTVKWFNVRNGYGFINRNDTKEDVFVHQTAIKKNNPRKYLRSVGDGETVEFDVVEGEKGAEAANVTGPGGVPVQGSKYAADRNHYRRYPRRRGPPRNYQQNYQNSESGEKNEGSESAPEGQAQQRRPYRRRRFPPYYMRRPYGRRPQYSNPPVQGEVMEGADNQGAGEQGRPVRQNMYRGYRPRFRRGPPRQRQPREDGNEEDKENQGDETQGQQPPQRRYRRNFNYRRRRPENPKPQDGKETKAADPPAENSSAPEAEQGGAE
UniProt P11940: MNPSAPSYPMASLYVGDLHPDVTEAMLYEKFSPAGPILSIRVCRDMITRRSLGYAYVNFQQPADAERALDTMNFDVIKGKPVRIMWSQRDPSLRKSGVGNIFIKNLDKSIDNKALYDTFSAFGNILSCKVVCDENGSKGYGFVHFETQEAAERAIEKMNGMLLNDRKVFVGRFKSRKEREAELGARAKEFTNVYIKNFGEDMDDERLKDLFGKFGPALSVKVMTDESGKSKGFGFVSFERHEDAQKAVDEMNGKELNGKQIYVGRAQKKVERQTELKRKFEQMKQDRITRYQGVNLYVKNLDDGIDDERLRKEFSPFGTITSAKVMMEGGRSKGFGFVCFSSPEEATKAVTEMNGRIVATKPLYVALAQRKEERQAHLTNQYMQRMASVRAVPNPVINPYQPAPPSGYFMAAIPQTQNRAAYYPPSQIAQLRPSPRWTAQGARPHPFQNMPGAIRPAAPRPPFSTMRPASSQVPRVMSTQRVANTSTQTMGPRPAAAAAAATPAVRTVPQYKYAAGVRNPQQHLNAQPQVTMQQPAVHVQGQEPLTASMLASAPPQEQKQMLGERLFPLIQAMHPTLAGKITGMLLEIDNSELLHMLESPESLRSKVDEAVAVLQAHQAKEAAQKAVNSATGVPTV
UniProt P06748: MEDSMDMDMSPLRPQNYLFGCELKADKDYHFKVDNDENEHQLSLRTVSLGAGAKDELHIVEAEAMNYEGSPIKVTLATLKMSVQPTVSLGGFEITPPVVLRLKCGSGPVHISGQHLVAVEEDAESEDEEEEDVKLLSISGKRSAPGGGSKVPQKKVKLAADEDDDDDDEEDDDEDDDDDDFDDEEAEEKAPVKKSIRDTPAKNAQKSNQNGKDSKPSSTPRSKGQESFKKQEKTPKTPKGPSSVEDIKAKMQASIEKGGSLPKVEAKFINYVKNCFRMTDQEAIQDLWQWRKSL

Target: APE1 FLAG-tagged protein (apurinic/apyrimidinic endonuclease 1) (human) (UniProt P27695)
Test: affinity purification with mass spectrometry; anti-FLAG (M2) immunocapture of APE1-FLAG from whole-cell, nuclear and cytoplasmic extracts of a HeLa clone; SDS-PAGE, in-gel trypsin digestion, nanoLC-ESI-Q-Orbitrap-MS/MS; hits filtered against empty-vector clone (SCR) and resin without antibody (res)

binding, binds:
XRCC1 (from UniProt P18887 1-633) (other; other documents disagree on this pair)
FEN1 (from UniProt P39748 1-380)
YB1 (Y-Box binding protein 1, coded by YBX1) (from UniProt P67809 1-324)
hnRNPK (heterogeneous nuclear ribonucleoprotein K) (from UniProt P61978 1-463)
PABPC1 (from UniProt P11940 1-636)
nucleophosmin 1 (NPM1) (from UniProt P06748 1-294)

These are yes or no findings as the source states them, for the method shown. In cells and extracts the contact can be indirect. Here binding means that the protein was enriched with, or labelled near, the bait; the list need not be complete.
